Assay results: the supplement of paper PMC6411743
± gives the standard deviation of the averaged measurements. This is one part of the list.

Chains of the proteins cited; added tags and fusions are not shown. Lines headed by an entry give the natural chain unless they say otherwise; changes in a name come on top.
UniProt Q6IEG0: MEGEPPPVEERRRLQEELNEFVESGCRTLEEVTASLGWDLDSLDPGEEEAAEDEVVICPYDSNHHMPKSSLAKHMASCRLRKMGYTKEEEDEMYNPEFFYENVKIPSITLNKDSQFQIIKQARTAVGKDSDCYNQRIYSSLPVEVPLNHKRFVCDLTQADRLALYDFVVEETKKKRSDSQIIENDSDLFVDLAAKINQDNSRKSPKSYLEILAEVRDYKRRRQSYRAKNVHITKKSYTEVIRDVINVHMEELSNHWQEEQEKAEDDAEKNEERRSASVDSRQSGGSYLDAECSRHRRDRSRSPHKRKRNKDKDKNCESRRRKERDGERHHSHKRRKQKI
UniProt Q5VW32: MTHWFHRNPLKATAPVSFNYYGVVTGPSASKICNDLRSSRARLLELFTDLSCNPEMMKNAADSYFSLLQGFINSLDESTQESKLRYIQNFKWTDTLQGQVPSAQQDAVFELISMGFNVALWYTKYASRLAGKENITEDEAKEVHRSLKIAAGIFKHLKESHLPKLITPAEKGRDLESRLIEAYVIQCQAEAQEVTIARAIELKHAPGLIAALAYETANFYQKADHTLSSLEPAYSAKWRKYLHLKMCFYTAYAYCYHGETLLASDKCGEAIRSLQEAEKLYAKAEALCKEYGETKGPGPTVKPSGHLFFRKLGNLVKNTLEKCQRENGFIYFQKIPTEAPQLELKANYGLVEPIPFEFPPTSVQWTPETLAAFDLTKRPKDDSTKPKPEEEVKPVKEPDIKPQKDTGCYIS
UniProt Q6UWE0: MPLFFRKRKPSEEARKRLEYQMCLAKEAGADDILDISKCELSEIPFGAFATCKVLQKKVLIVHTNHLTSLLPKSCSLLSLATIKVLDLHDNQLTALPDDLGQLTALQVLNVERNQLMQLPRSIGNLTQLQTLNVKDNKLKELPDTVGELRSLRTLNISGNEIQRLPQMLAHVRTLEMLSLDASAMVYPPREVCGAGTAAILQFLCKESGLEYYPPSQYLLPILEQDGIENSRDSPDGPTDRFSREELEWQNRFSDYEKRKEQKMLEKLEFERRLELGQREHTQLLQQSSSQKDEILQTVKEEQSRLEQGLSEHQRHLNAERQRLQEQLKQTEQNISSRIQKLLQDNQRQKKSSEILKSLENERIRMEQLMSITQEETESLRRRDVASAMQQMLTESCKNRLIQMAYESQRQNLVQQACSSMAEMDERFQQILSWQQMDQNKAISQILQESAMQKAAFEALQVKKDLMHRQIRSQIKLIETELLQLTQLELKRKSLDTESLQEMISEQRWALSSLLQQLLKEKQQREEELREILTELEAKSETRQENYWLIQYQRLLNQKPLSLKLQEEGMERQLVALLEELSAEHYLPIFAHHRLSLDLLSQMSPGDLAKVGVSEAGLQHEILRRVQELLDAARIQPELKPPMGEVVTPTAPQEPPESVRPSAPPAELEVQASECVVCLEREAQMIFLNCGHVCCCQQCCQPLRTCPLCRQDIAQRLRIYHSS
UniProt Q6ZT12: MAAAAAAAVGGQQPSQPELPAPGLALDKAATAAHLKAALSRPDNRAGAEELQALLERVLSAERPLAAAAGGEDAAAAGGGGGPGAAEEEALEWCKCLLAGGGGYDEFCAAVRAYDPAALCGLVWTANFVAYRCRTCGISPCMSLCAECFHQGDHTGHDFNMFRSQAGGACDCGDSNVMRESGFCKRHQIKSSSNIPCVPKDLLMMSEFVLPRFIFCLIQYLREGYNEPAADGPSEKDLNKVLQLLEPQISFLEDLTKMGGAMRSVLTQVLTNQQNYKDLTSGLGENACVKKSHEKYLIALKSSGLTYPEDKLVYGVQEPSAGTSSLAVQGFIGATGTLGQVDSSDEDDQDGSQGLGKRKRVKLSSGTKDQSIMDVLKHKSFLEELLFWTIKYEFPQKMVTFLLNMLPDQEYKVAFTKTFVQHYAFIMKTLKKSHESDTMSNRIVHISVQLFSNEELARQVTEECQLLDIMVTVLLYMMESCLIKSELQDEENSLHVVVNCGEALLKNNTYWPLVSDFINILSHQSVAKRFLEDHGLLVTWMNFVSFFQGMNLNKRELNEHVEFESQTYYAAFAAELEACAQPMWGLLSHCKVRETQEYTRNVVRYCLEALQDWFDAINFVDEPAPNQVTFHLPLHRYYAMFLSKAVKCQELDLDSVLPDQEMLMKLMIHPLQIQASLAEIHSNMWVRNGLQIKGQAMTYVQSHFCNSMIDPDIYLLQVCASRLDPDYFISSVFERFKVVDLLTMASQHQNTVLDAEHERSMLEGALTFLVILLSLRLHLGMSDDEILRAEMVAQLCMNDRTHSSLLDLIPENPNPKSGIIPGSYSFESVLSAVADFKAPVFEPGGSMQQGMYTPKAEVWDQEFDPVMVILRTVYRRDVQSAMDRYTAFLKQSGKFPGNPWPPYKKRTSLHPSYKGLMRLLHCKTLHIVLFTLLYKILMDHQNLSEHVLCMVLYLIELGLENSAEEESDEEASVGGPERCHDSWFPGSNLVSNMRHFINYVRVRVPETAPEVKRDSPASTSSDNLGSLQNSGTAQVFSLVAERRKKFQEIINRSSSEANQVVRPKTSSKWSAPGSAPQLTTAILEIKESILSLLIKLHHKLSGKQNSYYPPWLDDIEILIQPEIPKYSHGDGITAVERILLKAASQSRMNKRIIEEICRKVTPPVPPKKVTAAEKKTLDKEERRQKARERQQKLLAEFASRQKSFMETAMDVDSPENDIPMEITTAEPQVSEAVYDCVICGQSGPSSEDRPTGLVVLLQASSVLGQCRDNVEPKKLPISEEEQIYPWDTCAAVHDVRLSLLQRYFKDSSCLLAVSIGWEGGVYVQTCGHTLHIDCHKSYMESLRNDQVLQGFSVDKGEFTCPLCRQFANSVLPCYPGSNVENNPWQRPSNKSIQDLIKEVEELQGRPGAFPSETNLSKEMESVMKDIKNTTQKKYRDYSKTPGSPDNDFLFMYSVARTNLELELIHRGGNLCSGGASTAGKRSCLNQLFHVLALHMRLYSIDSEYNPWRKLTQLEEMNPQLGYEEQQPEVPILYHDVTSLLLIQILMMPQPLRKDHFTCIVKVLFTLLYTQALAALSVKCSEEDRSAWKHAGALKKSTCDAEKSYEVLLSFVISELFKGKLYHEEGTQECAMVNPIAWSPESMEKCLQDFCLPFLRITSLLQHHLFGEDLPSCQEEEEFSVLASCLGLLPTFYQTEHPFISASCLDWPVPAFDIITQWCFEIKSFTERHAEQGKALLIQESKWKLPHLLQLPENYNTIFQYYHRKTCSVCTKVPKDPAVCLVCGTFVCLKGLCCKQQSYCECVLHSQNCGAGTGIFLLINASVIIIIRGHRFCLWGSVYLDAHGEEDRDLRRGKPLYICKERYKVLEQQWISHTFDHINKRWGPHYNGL
UniProt Q9HBG7: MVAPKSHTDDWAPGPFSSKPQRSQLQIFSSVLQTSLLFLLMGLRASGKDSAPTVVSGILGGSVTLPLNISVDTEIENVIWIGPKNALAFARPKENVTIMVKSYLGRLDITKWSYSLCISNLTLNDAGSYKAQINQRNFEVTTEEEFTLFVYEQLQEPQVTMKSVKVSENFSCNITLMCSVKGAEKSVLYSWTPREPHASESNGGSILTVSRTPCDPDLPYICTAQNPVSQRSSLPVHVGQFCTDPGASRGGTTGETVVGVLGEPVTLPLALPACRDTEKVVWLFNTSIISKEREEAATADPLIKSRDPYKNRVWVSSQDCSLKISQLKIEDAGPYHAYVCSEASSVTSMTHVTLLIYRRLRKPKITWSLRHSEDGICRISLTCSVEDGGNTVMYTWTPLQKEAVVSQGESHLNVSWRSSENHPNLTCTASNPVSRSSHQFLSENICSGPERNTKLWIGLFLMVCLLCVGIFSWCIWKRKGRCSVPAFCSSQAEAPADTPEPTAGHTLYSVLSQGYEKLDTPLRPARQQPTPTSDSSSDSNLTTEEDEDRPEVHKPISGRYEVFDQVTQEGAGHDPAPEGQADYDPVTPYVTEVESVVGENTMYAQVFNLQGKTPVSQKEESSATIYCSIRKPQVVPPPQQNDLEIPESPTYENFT
UniProt Q7RTP6, whole entry: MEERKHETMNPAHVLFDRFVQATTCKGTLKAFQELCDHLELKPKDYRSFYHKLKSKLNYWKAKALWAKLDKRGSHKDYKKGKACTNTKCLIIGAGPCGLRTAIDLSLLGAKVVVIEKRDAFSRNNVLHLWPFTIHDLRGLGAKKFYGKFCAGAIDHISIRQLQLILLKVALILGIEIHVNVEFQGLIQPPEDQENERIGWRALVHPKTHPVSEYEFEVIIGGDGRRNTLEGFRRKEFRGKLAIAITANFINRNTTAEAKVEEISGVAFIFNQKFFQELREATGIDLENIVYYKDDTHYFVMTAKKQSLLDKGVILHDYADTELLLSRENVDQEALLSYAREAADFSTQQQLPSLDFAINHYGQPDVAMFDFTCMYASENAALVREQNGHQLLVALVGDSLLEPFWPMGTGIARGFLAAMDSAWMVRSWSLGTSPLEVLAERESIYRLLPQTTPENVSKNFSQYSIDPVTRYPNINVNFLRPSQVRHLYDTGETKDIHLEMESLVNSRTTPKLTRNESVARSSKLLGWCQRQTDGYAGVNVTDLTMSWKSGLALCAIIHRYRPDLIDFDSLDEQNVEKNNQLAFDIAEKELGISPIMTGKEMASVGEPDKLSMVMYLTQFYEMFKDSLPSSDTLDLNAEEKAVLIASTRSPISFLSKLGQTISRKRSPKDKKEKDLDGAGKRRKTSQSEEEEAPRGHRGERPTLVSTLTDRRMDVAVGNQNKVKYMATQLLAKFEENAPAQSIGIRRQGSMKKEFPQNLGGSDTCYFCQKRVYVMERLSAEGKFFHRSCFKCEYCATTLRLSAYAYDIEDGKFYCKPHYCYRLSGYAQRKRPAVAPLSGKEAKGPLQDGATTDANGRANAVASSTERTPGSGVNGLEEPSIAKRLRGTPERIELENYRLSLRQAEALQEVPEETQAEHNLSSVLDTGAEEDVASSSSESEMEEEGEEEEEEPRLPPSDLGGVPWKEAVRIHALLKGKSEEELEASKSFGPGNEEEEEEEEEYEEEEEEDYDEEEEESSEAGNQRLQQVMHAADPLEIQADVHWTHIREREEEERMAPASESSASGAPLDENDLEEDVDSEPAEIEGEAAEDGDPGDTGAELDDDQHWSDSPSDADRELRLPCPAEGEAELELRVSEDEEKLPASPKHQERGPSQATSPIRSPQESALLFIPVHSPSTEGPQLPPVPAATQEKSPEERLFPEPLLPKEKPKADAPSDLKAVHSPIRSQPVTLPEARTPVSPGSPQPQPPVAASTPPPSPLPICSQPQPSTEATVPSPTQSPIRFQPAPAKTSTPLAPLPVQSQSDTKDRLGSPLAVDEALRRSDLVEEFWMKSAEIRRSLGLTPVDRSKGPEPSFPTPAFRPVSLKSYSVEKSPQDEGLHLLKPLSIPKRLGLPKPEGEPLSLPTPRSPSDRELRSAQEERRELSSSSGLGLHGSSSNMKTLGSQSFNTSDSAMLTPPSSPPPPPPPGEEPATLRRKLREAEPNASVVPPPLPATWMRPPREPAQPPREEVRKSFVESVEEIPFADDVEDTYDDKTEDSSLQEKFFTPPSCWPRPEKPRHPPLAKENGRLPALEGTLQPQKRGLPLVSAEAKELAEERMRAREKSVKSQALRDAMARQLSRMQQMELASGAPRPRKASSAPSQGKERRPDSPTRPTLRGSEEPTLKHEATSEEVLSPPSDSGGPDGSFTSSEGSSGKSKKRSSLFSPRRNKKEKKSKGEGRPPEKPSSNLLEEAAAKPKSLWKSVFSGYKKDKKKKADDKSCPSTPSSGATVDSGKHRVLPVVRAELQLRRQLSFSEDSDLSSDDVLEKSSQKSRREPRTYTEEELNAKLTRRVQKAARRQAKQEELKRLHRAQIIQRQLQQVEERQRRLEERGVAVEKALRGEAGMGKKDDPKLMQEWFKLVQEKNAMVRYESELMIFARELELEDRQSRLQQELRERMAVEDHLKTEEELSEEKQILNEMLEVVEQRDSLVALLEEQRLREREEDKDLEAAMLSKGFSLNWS
UniProt Q6ZVM7: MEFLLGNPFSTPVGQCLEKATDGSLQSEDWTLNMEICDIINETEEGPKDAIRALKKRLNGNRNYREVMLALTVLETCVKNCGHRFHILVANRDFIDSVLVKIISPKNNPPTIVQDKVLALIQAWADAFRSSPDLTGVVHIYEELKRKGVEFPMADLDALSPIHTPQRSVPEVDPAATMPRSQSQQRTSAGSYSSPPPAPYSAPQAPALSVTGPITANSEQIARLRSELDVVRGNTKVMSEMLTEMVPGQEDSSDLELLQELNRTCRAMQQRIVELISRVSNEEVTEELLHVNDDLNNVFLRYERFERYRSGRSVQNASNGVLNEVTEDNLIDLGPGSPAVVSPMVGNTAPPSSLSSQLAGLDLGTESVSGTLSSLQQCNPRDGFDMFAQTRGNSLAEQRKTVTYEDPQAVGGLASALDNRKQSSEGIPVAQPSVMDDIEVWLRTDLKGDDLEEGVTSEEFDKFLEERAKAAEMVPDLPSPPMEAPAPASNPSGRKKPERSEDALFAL

Compound: Nc1nc2c(ncn2[C@@H]2O[C@H](COP(=O)(O)OP(=O)(O)OP(=O)(O)O)[C@@H](O)[C@H]2O)c(=O)[nH]1 [guanosine triphosphate]
Assay: NP40-soluble protein abundance relative to vehicle (solubility fold change) (ratio); higher = more soluble protein in presence of GTP
Summary of the method: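 Data come from three independent experiments in which Dounce-homogenised Jurkat crude lysate was treated at eight concentrations from 0.1 to 10 mM. Treatment ran 10 min at room temperature and then 3 min at 37 °C, after which 0.8% NP40 and benzonase were added for 60 min at 4 °C before ultracentrifugation. The supernatant underwent TMT labelling and LC-MS/MS, and vsn-normalised intensities were expressed as fold change against the detergent-processed vehicle in each replicate.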

Row | Target | NP40-soluble protein abundance (concentration: 0.1mM) | NP40-soluble protein abundance (concentration: 0.5mM) | NP40-soluble protein abundance (concentration: 1mM) | NP40-soluble protein abundance (concentration: 2mM) | NP40-soluble protein abundance (concentration: 4mM) | NP40-soluble protein abundance (concentration: 6mM) | NP40-soluble protein abundance (concentration: 8mM) | NP40-soluble protein abundance (concentration: 10mM)
1 | UniProt Q7KZN9 and related entries | 1.07 ± 0.024 | 1.05 ± 0.11 | 0.98 ± 0.035 | 0.961 ± 0.022 | 0.939 ± 0.052 | 0.924 ± 0.037 | 0.907 ± 0.029 | 0.931 ± 0.042
2 | CHMP1B (UniProt Q7LBR1) | 0.84 ± 0.038 | 0.797 ± 0.064 | 0.957 ± 0.03 | 0.938 ± 0.059 | 0.911 ± 0.046 | 0.922 ± 0.075 | 0.858 ± 0.1 | 0.94 ± 0.036
3 | SNRNP48 (UniProt Q6IEG0) | 1.08 ± 0.0069 | 1.14 ± 0.0098 | 1.21 ± 0.073 | 1.24 ± 0.1 | 1.33 ± 0.091 | 1.34 ± 0.087 | 1.44 ± 0.13 | 1.44 ± 0.11
4 | METTL3 (UniProt Q86U44) | 0.967 ± 0.058 | 1.01 ± 0.061 | 0.969 ± 0.062 | 0.948 ± 0.076 | 0.911 ± 0.06 | 0.932 ± 0.058 | 0.92 ± 0.085 | 0.931 ± 0.063
5 | UniProt Q5VW32 and related entries | 0.959 ± 0.04 | 0.886 ± 0.051 | 0.902 ± 0.051 | 0.859 ± 0.03 | 0.877 ± 0.09 | 0.845 ± 0.071 | 0.823 ± 0.098 | 0.811 ± 0.074
6 | LRSAM1 (UniProt Q6UWE0) | 1.11 ± 0.11 | 1.03 ± 0.091 | 0.998 ± 0.054 | 0.991 ± 0.054 | 1.05 ± 0.17 | 0.942 ± 0.033 | 0.985 ± 0.22 | 0.919 ± 0.13
7 | UniProt Q6ZT12 and related entries | 0.974 ± 0.1 | 0.955 ± 0.14 | 0.917 ± 0.017 | 0.868 ± 0.048 | 0.866 ± 0.055 | 0.862 ± 0.057 | 0.849 ± 0.099 | 0.816 ± 0.082
8 | UniProt Q86T03-2 | 1.09 ± 0.12 | 1.08 ± 0.12 | 1.06 ± 0.12 | 1.18 ± 0.16 | 1.19 ± 0.21 | 1.16 ± 0.23 | 1.2 ± 0.2 | 1.21 ± 0.19
9 | Q5VYH9 and related entries (UniProt Q9HBG7) | 0.905 ± 0.18 | 0.798 ± 0.16 | 0.853 ± 0.23 | 0.772 ± 0.22 | 0.773 ± 0.13 | 0.736 ± 0.2 | 0.784 ± 0.18 | 0.766 ± 0.19
10 | MICAL3 (UniProt Q7RTP6) | 1.01 ± 0.1 | 0.962 ± 0.052 | 1.01 ± 0.12 | 1.07 ± 0.13 | 0.999 ± 0.12 | 0.967 ± 0.066 | 1.02 ± 0.077 | 1.08 ± 0.15
11 | UniProt Q68E01 and related entries | 1.01 ± 0.028 | 1.01 ± 0.026 | 1.03 ± 0.027 | 1.03 ± 0.03 | 1.08 ± 0.026 | 1.12 ± 0.053 | 1.11 ± 0.036 | 1.11 ± 0.021
12 | UniProt Q6Y288 | 1.04 ± 0.13 | 1.15 ± 0.032 | 1.09 ± 0.09 | 1 ± 0.062 | 0.969 ± 0.063 | 1.02 ± 0.062 | 1.01 ± 0.042 | 0.983 ± 0.062
13 | UniProt Q6ZVM7 and related entries | 0.946 ± 0.073 | 0.92 ± 0.045 | 1.01 ± 0.074 | 0.957 ± 0.07 | 0.87 ± 0.071 | 0.919 ± 0.062 | 0.885 ± 0.057 | 0.928 ± 0.021
14 | Q5VXN0 and related entries (UniProt Q9H7B2) | 1.03 ± 0.077 | 1.1 ± 0.15 | 1.08 ± 0.14 | 1.05 ± 0.085 | 0.862 ± 0.098 | 0.843 ± 0.11 | 0.733 ± 0.05 | 0.798 ± 0.093

Given as a markdown table: part of the list above

| Row | Target | NP40-soluble protein abundance (concentration: 0.1mM) | NP40-soluble protein abundance (concentration: 0.5mM) | NP40-soluble protein abundance (concentration: 1mM) | NP40-soluble protein abundance (concentration: 2mM) | NP40-soluble protein abundance (concentration: 4mM) | NP40-soluble protein abundance (concentration: 6mM) | NP40-soluble protein abundance (concentration: 8mM) | NP40-soluble protein abundance (concentration: 10mM) |
| --- | --- | --- | --- | --- | --- | --- | --- | --- | --- |
| 2 | CHMP1B (UniProt Q7LBR1) | 0.84 ± 0.038 | 0.797 ± 0.064 | 0.957 ± 0.03 | 0.938 ± 0.059 | 0.911 ± 0.046 | 0.922 ± 0.075 | 0.858 ± 0.1 | 0.94 ± 0.036 |
| 12 | UniProt Q6Y288 | 1.04 ± 0.13 | 1.15 ± 0.032 | 1.09 ± 0.09 | 1 ± 0.062 | 0.969 ± 0.063 | 1.02 ± 0.062 | 1.01 ± 0.042 | 0.983 ± 0.062 |
